In PubChem BioAssay (NCATS):
“And” between values parts separate entries of the source, which are not always exact repeats. Identical values can stand only once. The list shows a part of the results. Further columns of the screen follow, without active or inactive calls. Compounds called inactive in the main read-out are mostly missing here. The note in brackets gives the kind of curve behind each potency; many fits are weak.

assay: qHTS assay for small molecule antagonists of peroxisome proliferator-activated receptor gamma signaling (AID 588537); conditions: HEK293 PPARg-UAS-bla, beta-lactamase ratio, antagonist mode; measured here: W460 blue channel
Method in brief: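 Cell-based beta-lactamase assay; GW9662 served as the antagonist control. Stimulation used rosiglitazone, final 50 nM, 16 h, 37 C.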

| Compound | AC50 |
| --- | --- |
| CCCCCCCC(=O)O | 0.00562 µM [falling, full curve, poor fit] |
| OCc1cccc(Oc2ccccc2)c1 | 0.00141 µM [falling, full curve, poor fit] |
| Cc1ccc(N(C)C)cc1 | 50.1 µM [rising, single point] |
| CC(=O)CCc1ccccc1 | 50.1 µM [rising, single point] |
| C[C@H](CCC(=O)O)[C@H]1CC[C@H]2[C@@H]3[C@H](O)C[C@@H]4C[C@H](O)CC[C@]4(C)[C@H]3C[C@H](O)[C@]12C | 50.1 µM [rising, single point] |
| O=[N+]([O-])c1ccc(F)cc1F | 50.1 µM [rising, single point] |
| CCC(C)=O | 50.1 µM [rising, single point] |
| CC(CCC(=O)O)(c1ccc(O)cc1)c1ccc(O)cc1 | 50.1 µM [rising, single point] |
| C=Cc1ccccc1Br | 44.7 µM [falling, single point] |
| O=C1CCC(=O)O1 | 39.8 µM [rising, single point] |
| O=C1c2c(O)cccc2Cc2cccc(O)c21 | 63.1 µM [rising, single point] |
| CC(=O)Nc1ccc(C)cc1 | 50.1 µM [rising, single point] |
| Cc1cc(C)c(N)cc1C | 50.1 µM [rising, single point] |
| CCCCCCCCCCCCCCCCCC(=O)O | 100 µM [rising, single point] and 1.26 nM [falling, full curve, poor fit] |
| COc1ccc2nc(N)sc2c1 | 0.2 µM [falling, full curve, poor fit] |
| C=CCCCCCCCCCC | 0.00158 µM [falling, full curve, poor fit] |
| C=C[Si](OCCOC)(OCCOC)OCCOC | 0.00112 µM [falling, full curve, poor fit] |
| CCC=O | 50.1 µM [rising, single point] |
| CCC(C)(C)C | 0.0282 µM [falling, full curve, poor fit] |
| CN(C)Cc1cc(CN(C)C)c(O)c(CN(C)C)c1 | 0.0178 µM [falling, full curve, poor fit] |

| Compound | AC50 |
| --- | --- |
| O=C(/C=C/c1ccc(O)c(O)c1)O[C@@H](C(=O)O)[C@@H](OC(=O)/C=C/c1ccc(O)c(O)c1)C(=O)O | 63.1 µM [rising, single point] |
| CC(=O)c1cc(C)oc1C | 50.1 µM [rising, partial curve, poor fit] |
| CCSC(=O)N(CC(C)C)CC(C)C | 0.00562 µM [falling, full curve, poor fit] |
| N#CC1(O)CCCCC1 | 50.1 µM [rising, single point] |
| OC[C@@H](O)[C@@H](O)[C@H](O)[C@@H](O)CO | 0.000891 µM [falling, full curve, poor fit] |
| CCCCCCCCCCO | 0.0398 µM [falling, full curve, poor fit] |
| Cc1c(N)cccc1Cl | 50.1 µM [rising, single point] |
| CC(O)COC(C)(C)C (centres undefined) | 50.1 µM [rising, single point] |
| O=C(Nc1ccccc1)Nc1ccccc1 | 44.7 µM [falling, partial curve, poor fit] |
| CNc1ccccc1 | 70.8 µM [rising, single point] |
| C=CCc1ccc(O)c(OC)c1 | 70.8 µM [rising, single point] |
| O=C(Cl)c1cccc([N+](=O)[O-])c1 | 70.8 µM [rising, single point] |
| CC(C)C=O | 70.8 µM [rising, single point] |
| O=C(Cl)c1ccc(C(=O)Cl)cc1 | 0.0447 µM [falling, full curve, poor fit] |
| CCCCC(CC)COCC1CO1 (centres undefined) | 35.5 µM [rising, single point] |
| Cc1cc(C2(c3cc(C)c(O)cc3C)OS(=O)(=O)c3ccccc32)c(C)cc1O | 50.1 µM [rising, single point] |
| c1ccc2ncccc2c1 | 63.1 µM [rising, single point] |
| CCCC(Cl)CCCC(Cl)CCC(Cl)CCC(Cl)CCC(Cl)CCCC(Cl)CCC (centres undefined) | 7.08 µM [falling, partial curve, poor fit] |
| C=Cc1ccccc1Cl | 50.1 µM [rising, single point] |
